The supplement of paper PMC6078165

Tested on: MDAMB436
Experiment: relative JC-1 red fluorescence (viability) vs pre-drug, coculture with fibroblast (fraction); higher = more viable cancer cells
Conditions: 10 µM
Procedure: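 JC-1 labelled TNBC cells cocultured 1:1 (1,500 cells each) with CellTrace Violet stained primary or stromal fibroblasts in 384-well plates in FluoroBrite medium, treated with one of 42 anticancer drugs at 0.1, 1, 10 or 100 uM. JC-1 red fluorescence (mitochondrial integrity in cancer cells only) was read by plate reader every 8 h for 72 h. Values are normalised to each well's pre-drug value. The stock of one drug was tenfold lower, so its dose labels may be too high.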

Cc1c2oc3c(C)ccc(C(=O)N[C@@H]4C(=O)N[C@H](C(C)C)C(=O)N5CCC[C@H]5C(=O)N(C)CC(=O)N(C)[C@@H](C(C)C)C(=O)O[C@@H]4C)c3nc-2c(C(=O)N[C@@H]2C(=O)N[C@H](C(C)C)C(=O)N3CCC[C@H]3C(=O)N(C)CC(=O)N(C)[C@@H](C(C)C)C(=O)O[C@@H]2C)c(N)c1=O [Dactinomycin] (I: T[dV]P[Sar][NMeV] / II: T[dV]P[Sar][NMeV]; ester I:1-I:C, II:1-II:C; linker I:N-II:N via Actinocin(9to1))
relative JC-1 red fluorescence
Conditions | 8 h | 16 h | 24 h | 32 h | 40 h | 48 h | 56 h | 64 h | 72 h
coculture fibroblast: C12385 | 0.801 | 0.776 | 0.76 | 0.698 | 0.674 | 0.6634 | 0.66 | 0.6538 | 0.658
coculture fibroblast: H6013 | 0.845 | 0.816 | 0.797 | 0.799 | 0.787 | 0.813 | 0.791 | 0.784 | 0.758
coculture fibroblast: H6019 | 0.7564 | 0.729 | 0.719 | 0.664 | 0.639 | 0.626 | 0.616 | 0.609 | 0.596
coculture fibroblast: H6076 | 0.746 | 0.676 | 0.67 | 0.63 | 0.633 | 0.607 | 0.623 | 0.623 | 0.614
coculture fibroblast: H6231 | 0.67 | 0.646 | 0.732 | 0.663 | 0.674 | 0.662 | 0.675 | 0.672 | 0.674
coculture fibroblast: HADF | 0.839 | 0.854 | 0.852 | 0.858 | 0.88 | 0.764 | 0.779 | 0.786 | 0.875
coculture fibroblast: HCFa | 0.811 | 0.791 | 0.768 | 0.745 | 0.756 | 0.781 | 0.746 | 0.746 | 0.712
coculture fibroblast: HCPF | 0.723 | 0.683 | 0.709 | 0.656 | 0.663 | 0.644 | 0.647 | 0.64 | 0.651
coculture fibroblast: HHSteC | 0.834 | 0.843 | 0.843 | 0.836 | 0.865 | 0.886 | 0.854 | 0.852 | 0.821
coculture fibroblast: HMF | 0.764 | 0.75 | 0.796 | 0.778 | 0.8 | 0.782 | 0.82 | 0.796 | 0.795
coculture fibroblast: HPFa | 0.8321 | 0.8209 | 0.818 | 0.798 | 0.819 | 0.848 | 0.809 | 0.819 | 0.791
coculture fibroblast: HUF | 0.83 | 0.77 | 0.745 | 0.676 | 0.64 | 0.618 | 0.607 | 0.602 | 0.603
coculture fibroblast: Hs5 | 0.793 | 0.747 | 0.74 | 0.689 | 0.692 | 0.65 | 0.66 | 0.638 | 0.644
coculture fibroblast: Hs27A | 0.811 | 0.812 | 0.815 | 0.813 | 0.818 | 0.773 | 0.842 | 0.804 | 0.794
coculture fibroblast: Hs343T | 0.748 | 0.696 | 0.708 | 0.67 | 0.688 | 0.665 | 0.679 | 0.686 | 0.702
coculture fibroblast: WS1 | 0.79 | 0.75 | 0.736 | 0.673 | 0.661 | 0.65 | 0.6553 | 0.6419 | 0.6534

Values are relative to the signal before dosing, not to a vehicle control; the signal also falls without drug.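 Fibroblast labels name human fibroblasts: mostly primary ones from tissues such as uterus (C12385, HUF), lung (H6013), bone (Hs27A), adrenal (HADF) and skin (WS1), plus mammary HMF and breast cancer-associated Hs343T. The cancer cells are basal-like or mesenchymal-like triple-negative breast cancer lines. The paper calls a changed response a hit when it shifts by more than 3x the replicate standard deviation. The tissue of the other fibroblasts is not given here.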 Numbered stars: 1 amine (or outer) side, 2 acyl side, 3 side chain; on linkers, the order of the positions; unused ones are H or OH. Bridge positions count the residues as written; N and C are the ends. Square brackets hold non-standard residues; d marks the D form. Peptide text beside a SMILES is read from it. I, II: the chains in the order shown. Actinocin(9to1) = Cc1c2oc3c(C)ccc(C(=O)[*:1])c3nc-2c(C(=O)[*:2])c(N)c1=O; NMeV = CN[C@H](C(=O)O)C(C)C; Sar = CNCC(=O)O
